Laboratory results: PubChem BioAssay AID1259254 (NCATS, 2017)
Shown is one part, drawn at random, of about 59,000 reagents. About 1,550 of all reagents (2.6%) were called active. 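G2 share is only a proxy for re-replication; each gene was hit by three separate siRNAs, and active genes were retested.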 The raw values are shown without normalisation. Reagents against one gene are numbered here. The record does not give: the amount of reagent.

Assay: 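Genome-wide screen for genes that prevent DNA re-replication in cancer cells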 (primary screen)
Cell system: human HCT116 colorectal cancer cells
Knock-down reagent: single siRNA against human genes
Timing: 3 days
Measured: 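Nuclei stained with Hoechst and imaged; cell-cycle phase assigned by DNA content; G2 share scaled per plate, non-targeting siRNA 0%, GMNN siRNA 100%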
Scale: G2 robust z-score and G2 cells, % of GMNN control: higher = more G2 cells, more excess DNA replication; raw share of cells in G2: higher = larger share of cells with G2 DNA content
Call rule: 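An siRNA counts as active if its G2 robust z-score lies at least 5 MADs above the screen median; here such calls match roughly 38% of GMNN control or more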

target,siRNA no.,G2 robust z-score,"G2 cells, % of GMNN control",raw share of cells in G2 (%),Outcome
TPRA1 (transmembrane protein adipocyte associated 1),1,2.95,23.7,14.3,inactive
TPRA1 (transmembrane protein adipocyte associated 1),2,-0.79,-2.59,3.61,inactive
TPRA1 (transmembrane protein adipocyte associated 1),3,-0.0377,2.7,4.1,inactive
SCRN1 (secernin 1),1,0.796,8.57,9.2,inactive
SCRN1 (secernin 1),2,-0.149,1.92,4.74,inactive
SCRN1 (secernin 1),3,-0.153,1.89,4.09,inactive
ZP1 (zona pellucida glycoprotein 1),1,-1.06,-4.49,3.23,inactive
ZP1 (zona pellucida glycoprotein 1),2,0.506,6.53,6.83,inactive
ZP1 (zona pellucida glycoprotein 1),3,0.898,9.29,6.65,inactive
SLC25A18,1,3.4,26.9,14.8,inactive
SLC25A18,2,0.4,5.78,6.29,inactive
SLC25A18,3,0.227,4.57,7.33,inactive
OCLM (retired record),1,-1.28,-6.01,2.63,inactive
OCLM (retired record),2,-0.0269,2.78,5.28,inactive
OCLM (retired record),3,3.5,27.6,13.5,inactive
CNGA4 (cyclic nucleotide gated channel subunit alpha 4),1,2.54,20.8,12.9,inactive
CNGA4 (cyclic nucleotide gated channel subunit alpha 4),2,3.14,25.1,13.3,inactive
CNGA4 (cyclic nucleotide gated channel subunit alpha 4),3,1.72,15.1,10.3,inactive
UHMK1 (U2AF homology motif kinase 1),1,-0.755,-2.34,4.86,inactive
UHMK1 (U2AF homology motif kinase 1),2,-0.567,-1.02,4.82,inactive
UHMK1 (U2AF homology motif kinase 1),3,-0.685,-1.85,3.09,inactive
BUB3 (BUB3 mitotic checkpoint protein),1,0.00944,3.03,6.48,inactive
BUB3 (BUB3 mitotic checkpoint protein),2,2.1,17.7,10.9,inactive
BUB3 (BUB3 mitotic checkpoint protein),3,9.9,72.6,29,active
KCNJ11 (potassium inwardly rectifying channel subfamily J member 11),1,4.38,33.8,17.6,inactive
KCNJ11 (potassium inwardly rectifying channel subfamily J member 11),2,1.81,15.7,10.1,inactive
KCNJ11 (potassium inwardly rectifying channel subfamily J member 11),3,0.844,8.9,7.85,inactive
FAM163A (family with sequence similarity 163 member A),1,-0.717,-2.08,3.13,inactive
FAM163A (family with sequence similarity 163 member A),2,0.999,9.99,6,inactive
FAM163A (family with sequence similarity 163 member A),3,4.56,35,15.3,inactive
IL10RA (interleukin 10 receptor subunit alpha),1,1.04,10.3,8.77,inactive
IL10RA (interleukin 10 receptor subunit alpha),2,0.631,7.4,8.5,inactive
IL10RA (interleukin 10 receptor subunit alpha),3,2.16,18.2,10.9,inactive
PRSS8 (serine protease 8),1,0.862,9.04,8.71,inactive
PRSS8 (serine protease 8),2,0.52,6.63,7.25,inactive
PRSS8 (serine protease 8),3,-0.738,-2.23,3.08,inactive
LILRA1 (leukocyte immunoglobulin like receptor A1),1,-1.63,-8.52,3.12,inactive
LILRA1 (leukocyte immunoglobulin like receptor A1),2,0.296,5.05,5.47,inactive
LILRA1 (leukocyte immunoglobulin like receptor A1),3,-0.889,-3.28,4.27,inactive
OR1S2 (olfactory receptor family 1 subfamily S member 2),1,1.51,13.6,8.5,inactive
OR1S2 (olfactory receptor family 1 subfamily S member 2),2,1.56,13.9,7.9,inactive
OR1S2 (olfactory receptor family 1 subfamily S member 2),3,-0.0474,2.63,4.03,inactive
"MYB (MYB proto-oncogene, transcription factor)",1,2.96,23.8,11,inactive
"MYB (MYB proto-oncogene, transcription factor)",2,0.365,5.54,7.5,inactive
"MYB (MYB proto-oncogene, transcription factor)",3,-0.595,-1.22,4.99,inactive
FIGNL1 (fidgetin like 1),1,-0.536,-0.801,5.31,inactive
FIGNL1 (fidgetin like 1),2,0.58,7.05,6.84,inactive
FIGNL1 (fidgetin like 1),3,-0.892,-3.31,3.02,inactive
GAL (galanin and GMAP prepropeptide),1,-0.328,0.661,4.11,inactive
GAL (galanin and GMAP prepropeptide),2,0.103,3.69,5.94,inactive
GAL (galanin and GMAP prepropeptide),3,5.11,38.9,15.5,active
RABGEF1 (RAB guanine nucleotide exchange factor 1),1,0.506,6.52,6.12,inactive
RABGEF1 (RAB guanine nucleotide exchange factor 1),2,0.265,4.83,8.35,inactive
RABGEF1 (RAB guanine nucleotide exchange factor 1),3,1.22,11.5,8.01,inactive
LINC00705 (long independently transcribed non-coding RNA 705),1,-0.522,-0.709,3.74,inactive
LINC00705 (long independently transcribed non-coding RNA 705),2,0.945,9.62,7.47,inactive
LINC00705 (long independently transcribed non-coding RNA 705),3,-0.38,0.291,4.31,inactive
LCE1C (late cornified envelope 1C),1,0.759,8.31,6.18,inactive
LCE1C (late cornified envelope 1C),2,-0.228,1.36,3.55,inactive
LCE1C (late cornified envelope 1C),3,2.51,20.6,12.1,inactive
TSC22D4 (TSC22 domain family member 4),1,-0.431,-0.0627,3.61,inactive
TSC22D4 (TSC22 domain family member 4),2,0.965,9.76,10.3,inactive
TSC22D4 (TSC22 domain family member 4),3,0.195,4.34,4.32,inactive
LIPI (lipase I),1,2.24,18.8,12.6,inactive
LIPI (lipase I),2,-1.1,-4.78,2.95,inactive
LIPI (lipase I),3,0.0391,3.24,7.5,inactive
MROH5 (maestro heat like repeat family member 5 (gene/pseudogene)),1,-0.41,0.085,3.8,inactive
MROH5 (maestro heat like repeat family member 5 (gene/pseudogene)),2,-0.487,-0.457,3.21,inactive
MROH5 (maestro heat like repeat family member 5 (gene/pseudogene)),3,-1.49,-7.52,1.41,inactive

4 consecutive entries already listed, quoted:
target,siRNA no.,G2 robust z-score,"G2 cells, % of GMNN control",raw share of cells in G2 (%),Outcome
BUB3 (BUB3 mitotic checkpoint protein),2,2.1,17.7,10.9,inactive
BUB3 (BUB3 mitotic checkpoint protein),3,9.9,72.6,29,active
KCNJ11 (potassium inwardly rectifying channel subfamily J member 11),1,4.38,33.8,17.6,inactive
KCNJ11 (potassium inwardly rectifying channel subfamily J member 11),2,1.81,15.7,10.1,inactive
